These are yes or no findings as the source states them, for the method shown. Binding calls can cover weak binding; strength is not graded here. Sequences can lack the tags named with a protein.
Experiments:
CD155PVR-His = experiment: ELISA, CD155PVR-His captured, detected with IgG
recombinant CD155 [1] = experiment: Dual ELISA: OX40-Fc capture, CD155-His detection, 6x His HRP
recombinant CD155 [2] = experiment: dual ELISA, OX40-Fc captured, detected with recombinant CD155

Measured: binding

B1: human TIGIT-Fc-OX40L chimeric protein (Fc fusion)
chain: MMTGTIETTGNISAEKGGSIILQCHLSSTTAQVTQVNWEQQDQLLAICNADLGWHISPSFKDRVAPGPGLGLTLQSLTVNDTGEYFCIYHTYPDGTYTGRIFLEVLESSVAEHGARFQIPSKYGPPCPPCPAPEFLGGPSVFLFPPKPKDQLMISRTPEVTCVVVDVSQEDPEVQFNWYVDGVEVHNAKTKPREEQFNSTYRVVSVLTVLHQDWLSGKEYKCKVSSKGLPSSIEKTISNATGQPREPQVYTLPPSQEEMTKNQVSLTCLVKGFYPSDIAVEWESNGQPENNYKTTPPVLDSDGSFFLYSRLTVDKSRWQEGNVFSCSVLHEALHNHYTQKSLSLSLGKIEGRMDQVSHRYPRIQSIKVQFTEYKKEKGFILTSQKEDEIMKVQNNSVIINCDGFYLISLKGYFSQEVNISLHYQKDEEPLFQLKKVRSVNSLMVASLTYKDKVYLNVTTDNTSLDDFHVNGGELILIHQNPGEFCVL
binds: CD155PVR-His | recombinant CD155 [1] | recombinant CD155 [2]

Reference: patent publication US20240190939A1
